In the supplement of paper PMC12819154, “High-throughput peptide-centric local stability assay extends protein–ligand identification to membrane proteins, tissues and bacteria” (Nature Structural & Molecular Biology, 2025):
Some of the results follow. Most values lie at the level of the controls, where differences are scatter.

Sequences of proteins named here, by UniProt entry; tags and fusion partners are left off. A change or cut given only in a name is not applied to a line headed by its entry.
UniProt Q8C0J6: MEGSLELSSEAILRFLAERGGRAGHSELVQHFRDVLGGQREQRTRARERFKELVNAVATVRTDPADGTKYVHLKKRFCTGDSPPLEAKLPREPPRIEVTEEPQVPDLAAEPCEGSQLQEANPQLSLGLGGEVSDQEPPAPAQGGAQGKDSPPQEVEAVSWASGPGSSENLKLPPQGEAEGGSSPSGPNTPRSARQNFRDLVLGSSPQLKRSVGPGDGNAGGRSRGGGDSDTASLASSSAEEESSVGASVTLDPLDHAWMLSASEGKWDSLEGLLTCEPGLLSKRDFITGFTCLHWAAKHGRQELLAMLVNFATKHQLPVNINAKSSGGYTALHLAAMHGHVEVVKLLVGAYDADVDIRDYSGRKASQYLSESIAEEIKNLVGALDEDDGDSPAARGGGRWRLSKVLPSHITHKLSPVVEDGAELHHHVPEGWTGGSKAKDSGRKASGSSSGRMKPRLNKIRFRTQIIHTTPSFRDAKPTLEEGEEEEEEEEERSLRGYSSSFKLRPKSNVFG
UniProt Q8C570: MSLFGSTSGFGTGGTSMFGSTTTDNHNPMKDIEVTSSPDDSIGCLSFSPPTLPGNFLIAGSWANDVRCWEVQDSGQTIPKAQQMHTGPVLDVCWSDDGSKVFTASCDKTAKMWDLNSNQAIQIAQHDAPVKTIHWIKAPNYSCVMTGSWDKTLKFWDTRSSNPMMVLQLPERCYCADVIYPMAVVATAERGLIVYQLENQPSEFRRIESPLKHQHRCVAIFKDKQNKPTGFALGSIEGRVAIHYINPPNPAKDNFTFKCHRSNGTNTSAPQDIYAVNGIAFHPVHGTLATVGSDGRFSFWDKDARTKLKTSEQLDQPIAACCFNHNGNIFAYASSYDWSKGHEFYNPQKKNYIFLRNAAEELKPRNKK
UniProt Q8C8V1: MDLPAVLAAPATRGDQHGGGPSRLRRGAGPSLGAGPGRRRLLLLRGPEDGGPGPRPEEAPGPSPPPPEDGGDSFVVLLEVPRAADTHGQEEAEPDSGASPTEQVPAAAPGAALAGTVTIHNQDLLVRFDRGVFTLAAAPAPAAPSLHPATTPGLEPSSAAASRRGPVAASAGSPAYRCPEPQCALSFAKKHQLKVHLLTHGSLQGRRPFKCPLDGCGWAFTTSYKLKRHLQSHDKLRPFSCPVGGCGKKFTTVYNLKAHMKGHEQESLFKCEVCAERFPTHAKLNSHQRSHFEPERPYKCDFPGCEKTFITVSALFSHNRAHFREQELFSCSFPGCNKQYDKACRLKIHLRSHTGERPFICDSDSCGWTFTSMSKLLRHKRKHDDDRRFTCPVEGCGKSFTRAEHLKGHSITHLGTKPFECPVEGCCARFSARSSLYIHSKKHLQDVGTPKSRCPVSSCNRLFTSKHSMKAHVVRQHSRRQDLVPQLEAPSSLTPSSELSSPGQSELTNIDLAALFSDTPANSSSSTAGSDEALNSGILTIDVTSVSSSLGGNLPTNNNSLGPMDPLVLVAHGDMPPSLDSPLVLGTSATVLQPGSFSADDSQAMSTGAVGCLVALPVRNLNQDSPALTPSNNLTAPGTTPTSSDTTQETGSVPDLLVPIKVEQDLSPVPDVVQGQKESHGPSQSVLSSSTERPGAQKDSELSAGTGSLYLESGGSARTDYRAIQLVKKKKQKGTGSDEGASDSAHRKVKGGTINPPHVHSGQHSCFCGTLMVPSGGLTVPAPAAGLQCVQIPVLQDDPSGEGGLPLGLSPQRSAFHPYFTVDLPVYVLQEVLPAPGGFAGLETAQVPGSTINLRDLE
UniProt Q8C854: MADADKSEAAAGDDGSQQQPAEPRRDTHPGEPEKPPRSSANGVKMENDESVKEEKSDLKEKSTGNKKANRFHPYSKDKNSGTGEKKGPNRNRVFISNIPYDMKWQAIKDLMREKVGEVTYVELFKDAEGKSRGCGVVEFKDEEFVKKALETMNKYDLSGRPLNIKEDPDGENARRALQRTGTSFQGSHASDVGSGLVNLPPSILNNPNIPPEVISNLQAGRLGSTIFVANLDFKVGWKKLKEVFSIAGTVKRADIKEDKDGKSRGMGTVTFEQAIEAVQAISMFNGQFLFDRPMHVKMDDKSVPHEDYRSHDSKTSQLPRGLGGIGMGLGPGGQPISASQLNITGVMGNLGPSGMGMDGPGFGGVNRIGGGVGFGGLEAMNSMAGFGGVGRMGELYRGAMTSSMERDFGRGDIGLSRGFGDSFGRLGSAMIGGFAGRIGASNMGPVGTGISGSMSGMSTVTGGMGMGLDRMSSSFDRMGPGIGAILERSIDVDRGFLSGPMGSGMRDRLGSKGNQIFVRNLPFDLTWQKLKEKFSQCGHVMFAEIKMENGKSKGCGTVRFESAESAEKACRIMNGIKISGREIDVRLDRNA
UniProt Q8C0D5: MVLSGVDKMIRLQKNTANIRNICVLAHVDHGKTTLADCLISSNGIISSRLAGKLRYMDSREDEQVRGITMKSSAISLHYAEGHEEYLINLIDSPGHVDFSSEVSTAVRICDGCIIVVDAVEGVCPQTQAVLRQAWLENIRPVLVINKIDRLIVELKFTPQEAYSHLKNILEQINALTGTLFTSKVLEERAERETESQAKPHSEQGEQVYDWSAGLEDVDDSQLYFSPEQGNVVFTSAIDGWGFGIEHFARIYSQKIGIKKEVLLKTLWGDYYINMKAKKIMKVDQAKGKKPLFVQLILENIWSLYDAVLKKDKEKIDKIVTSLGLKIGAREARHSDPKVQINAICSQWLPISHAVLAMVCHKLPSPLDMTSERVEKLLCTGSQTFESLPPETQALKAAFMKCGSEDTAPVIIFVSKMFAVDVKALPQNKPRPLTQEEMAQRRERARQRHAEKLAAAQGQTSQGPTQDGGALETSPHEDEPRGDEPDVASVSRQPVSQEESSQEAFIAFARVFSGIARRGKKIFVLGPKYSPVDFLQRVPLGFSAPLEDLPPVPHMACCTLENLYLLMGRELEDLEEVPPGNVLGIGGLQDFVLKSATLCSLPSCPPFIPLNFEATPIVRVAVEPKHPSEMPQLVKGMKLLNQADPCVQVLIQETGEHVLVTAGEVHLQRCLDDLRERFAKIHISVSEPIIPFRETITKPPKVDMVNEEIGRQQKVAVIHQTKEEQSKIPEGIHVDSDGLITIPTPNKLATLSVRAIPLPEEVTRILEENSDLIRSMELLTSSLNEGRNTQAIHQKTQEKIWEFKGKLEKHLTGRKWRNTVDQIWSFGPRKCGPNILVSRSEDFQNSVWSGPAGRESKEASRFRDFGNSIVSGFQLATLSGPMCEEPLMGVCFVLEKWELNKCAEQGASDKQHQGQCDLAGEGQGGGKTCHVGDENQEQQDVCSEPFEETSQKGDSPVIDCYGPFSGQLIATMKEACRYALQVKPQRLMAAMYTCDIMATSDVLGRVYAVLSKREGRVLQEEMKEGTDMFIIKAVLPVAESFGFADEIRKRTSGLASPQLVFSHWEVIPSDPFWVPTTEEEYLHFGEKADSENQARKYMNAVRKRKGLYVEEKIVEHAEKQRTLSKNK
UniProt Q8BZN4: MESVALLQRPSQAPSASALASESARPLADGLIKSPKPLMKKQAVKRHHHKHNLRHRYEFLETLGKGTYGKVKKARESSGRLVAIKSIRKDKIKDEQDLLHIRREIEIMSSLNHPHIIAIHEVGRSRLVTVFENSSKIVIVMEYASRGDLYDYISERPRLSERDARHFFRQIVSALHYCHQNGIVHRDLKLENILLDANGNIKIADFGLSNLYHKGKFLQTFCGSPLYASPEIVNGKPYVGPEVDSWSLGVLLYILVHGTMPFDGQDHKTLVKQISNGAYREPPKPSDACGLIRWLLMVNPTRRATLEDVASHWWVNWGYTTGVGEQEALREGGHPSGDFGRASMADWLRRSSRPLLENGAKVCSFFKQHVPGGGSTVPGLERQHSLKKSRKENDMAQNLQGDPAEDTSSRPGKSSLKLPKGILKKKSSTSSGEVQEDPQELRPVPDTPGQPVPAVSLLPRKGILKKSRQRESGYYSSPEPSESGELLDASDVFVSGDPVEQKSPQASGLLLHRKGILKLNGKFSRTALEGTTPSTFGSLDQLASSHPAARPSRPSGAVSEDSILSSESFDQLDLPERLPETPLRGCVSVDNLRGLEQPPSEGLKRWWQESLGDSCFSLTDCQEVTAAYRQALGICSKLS
UniProt Q8C804: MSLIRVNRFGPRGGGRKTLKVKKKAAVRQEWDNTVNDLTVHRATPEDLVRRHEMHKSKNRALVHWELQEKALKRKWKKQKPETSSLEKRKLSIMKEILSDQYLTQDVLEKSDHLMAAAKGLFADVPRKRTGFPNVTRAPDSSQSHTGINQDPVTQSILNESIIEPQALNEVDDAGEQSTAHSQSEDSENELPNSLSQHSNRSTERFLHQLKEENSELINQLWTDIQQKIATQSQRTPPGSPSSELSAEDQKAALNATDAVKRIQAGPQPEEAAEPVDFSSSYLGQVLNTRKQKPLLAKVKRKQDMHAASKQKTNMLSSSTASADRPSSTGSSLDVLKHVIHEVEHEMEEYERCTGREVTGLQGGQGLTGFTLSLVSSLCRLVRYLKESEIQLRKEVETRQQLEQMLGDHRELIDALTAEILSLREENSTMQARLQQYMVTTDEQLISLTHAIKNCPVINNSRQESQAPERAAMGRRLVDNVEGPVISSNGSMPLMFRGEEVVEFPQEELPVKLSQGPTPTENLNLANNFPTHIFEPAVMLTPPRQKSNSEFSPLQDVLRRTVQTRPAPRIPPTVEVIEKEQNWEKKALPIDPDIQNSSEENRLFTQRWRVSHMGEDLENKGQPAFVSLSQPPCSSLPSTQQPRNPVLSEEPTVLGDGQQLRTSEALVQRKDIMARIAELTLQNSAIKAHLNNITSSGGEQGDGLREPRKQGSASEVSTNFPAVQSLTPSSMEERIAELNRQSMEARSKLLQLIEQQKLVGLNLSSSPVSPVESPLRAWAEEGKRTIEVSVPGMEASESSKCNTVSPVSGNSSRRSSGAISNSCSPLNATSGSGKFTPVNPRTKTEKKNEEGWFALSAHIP
UniProt Q8BXK8: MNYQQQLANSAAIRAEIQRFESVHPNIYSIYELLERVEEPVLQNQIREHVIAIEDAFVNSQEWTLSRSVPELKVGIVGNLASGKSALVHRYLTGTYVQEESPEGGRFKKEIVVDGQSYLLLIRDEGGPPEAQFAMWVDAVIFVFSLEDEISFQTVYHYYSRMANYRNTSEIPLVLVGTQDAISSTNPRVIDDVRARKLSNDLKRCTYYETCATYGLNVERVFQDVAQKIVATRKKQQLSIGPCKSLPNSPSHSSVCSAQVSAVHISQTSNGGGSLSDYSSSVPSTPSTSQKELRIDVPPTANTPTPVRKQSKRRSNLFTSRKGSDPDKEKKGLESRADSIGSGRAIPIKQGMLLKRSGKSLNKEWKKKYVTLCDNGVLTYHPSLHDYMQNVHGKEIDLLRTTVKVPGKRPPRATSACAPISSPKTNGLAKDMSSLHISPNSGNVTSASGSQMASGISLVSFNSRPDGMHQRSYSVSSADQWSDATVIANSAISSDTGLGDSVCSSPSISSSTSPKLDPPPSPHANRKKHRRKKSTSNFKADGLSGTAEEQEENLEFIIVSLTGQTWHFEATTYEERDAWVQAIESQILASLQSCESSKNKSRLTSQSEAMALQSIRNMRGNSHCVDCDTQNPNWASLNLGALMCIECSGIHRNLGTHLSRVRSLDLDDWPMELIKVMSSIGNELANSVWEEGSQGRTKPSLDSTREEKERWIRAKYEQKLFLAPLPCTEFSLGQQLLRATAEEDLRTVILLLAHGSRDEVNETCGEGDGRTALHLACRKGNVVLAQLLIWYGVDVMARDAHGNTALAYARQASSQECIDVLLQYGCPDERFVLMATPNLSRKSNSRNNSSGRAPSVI
UniProt Q8C5N5: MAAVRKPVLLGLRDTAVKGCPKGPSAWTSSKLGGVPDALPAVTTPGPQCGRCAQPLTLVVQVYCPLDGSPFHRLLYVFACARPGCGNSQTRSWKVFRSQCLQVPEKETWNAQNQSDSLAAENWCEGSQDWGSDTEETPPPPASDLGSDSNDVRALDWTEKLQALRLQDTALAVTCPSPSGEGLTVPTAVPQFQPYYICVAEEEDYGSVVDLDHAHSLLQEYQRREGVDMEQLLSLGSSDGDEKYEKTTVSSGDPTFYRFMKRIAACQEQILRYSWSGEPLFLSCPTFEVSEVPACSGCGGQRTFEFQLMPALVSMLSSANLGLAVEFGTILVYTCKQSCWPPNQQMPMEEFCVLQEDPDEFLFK
UniProt Q8C6B9: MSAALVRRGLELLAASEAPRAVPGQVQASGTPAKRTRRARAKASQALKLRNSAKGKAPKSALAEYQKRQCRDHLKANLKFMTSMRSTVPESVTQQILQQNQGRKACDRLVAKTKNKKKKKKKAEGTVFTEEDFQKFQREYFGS
UniProt Q8BZA9: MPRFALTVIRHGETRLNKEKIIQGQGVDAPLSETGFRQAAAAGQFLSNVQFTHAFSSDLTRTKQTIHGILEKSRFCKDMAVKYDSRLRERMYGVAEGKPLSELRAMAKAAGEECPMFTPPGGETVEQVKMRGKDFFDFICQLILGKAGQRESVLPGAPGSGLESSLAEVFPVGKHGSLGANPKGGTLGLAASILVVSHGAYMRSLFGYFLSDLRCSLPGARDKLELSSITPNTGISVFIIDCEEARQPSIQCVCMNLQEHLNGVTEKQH

The targets below were run with CN[C@@H]1C[C@H]2O[C@@](C)([C@@H]1OC)n1c3ccccc3c3c4c(c5c6ccccc6n2c5c31)C(=O)NC4 [staurosporine] (assay: log2 fold change of tryptic peptide abundance, ligand vs vehicle (limited proteolysis) (log2 ratio); higher = more trypsin-susceptible (destabilized)). Settings: ligand concentration: 20 uM; sample: mouse liver crude lysate; replicate design: treated separately.
Target “UniProt Q8C0J6 (peptide sequence: FRTQIIHTTPSFR, peptide start residue: 462)” has a log2 fold change of -0.49.
In the case of “UniProt Q8C570 (peptide sequence: NAAEELKPR, peptide start residue: 357)”, the log2 fold change is reported as -0.166.
“UniProt Q8C7E9 (peptide sequence: GQMQISDPRPPMPR, peptide start residue: 314)” gave a log2 fold change of 0.217.
Target “UniProt Q8C8R3 (peptide sequence: VALLLLEK, peptide start residue: 725)” has a log2 fold change of 0.169.
For “UniProt Q8C8V1 (peptide sequence: RKHDDDR, peptide start residue: 381)”, the log2 fold change was 0.0294.
For “UniProt Q8C4V1 (peptide sequence: FTMIEIK, peptide start residue: 693)”, the log2 fold change was 0.263.
“UniProt Q8C854 (peptide sequence: LGSAMIGGFAGR, peptide start residue: 426)” showed a log2 fold change of -0.211.
Target “UniProt Q8BZ32 (peptide sequence: HTFSVLPGDCQQR, peptide start residue: 245)” has a log2 fold change of 0.594.
“UniProt Q8C3R1 (peptide sequence: LQHCPQELR, peptide start residue: 305)” gave a log2 fold change of -0.393.
“UniProt Q8BVU5 (peptide sequence: WVDISDQLK, peptide start residue: 311)” gave a log2 fold change of 0.126.
“UniProt Q8C0D5 (peptide sequence: IDKIVTSLGLK, peptide start residue: 316)” was tested, and the log2 fold change was 0.612.
For “UniProt Q8BZN4 (peptide sequence: ASMADWLR, peptide start residue: 342)”, the log2 fold change was 0.397.
“UniProt Q8C804 (peptide sequence: VSHMGEDLENK, peptide start residue: 610)” gave a log2 fold change of 0.573.
“UniProt Q8C726 (peptide sequence: TALLNIVLR, peptide start residue: 184)” was tested, and the log2 fold change was -0.413.
Target “UniProt Q8BXK8 (peptide sequence: SLNKEWK, peptide start residue: 416)” has a log2 fold change of -0.239.
With “UniProt Q8C5N5 (peptide sequence: KPVLLGLR, peptide start residue: 6)” the log2 fold change was 0.202.
“UniProt Q8C0I4 (peptide sequence: VSAASVALLNTSK, peptide start residue: 558)” gave a log2 fold change of -0.43.
Target “UniProt Q8C6B9 (peptide sequence: RGLELLAASEAPR, peptide start residue: 8)” has a log2 fold change of -0.136.
Target “UniProt Q8C3J5 (peptide sequence: SSVVFADEK, peptide start residue: 1703)” has a log2 fold change of -0.353.
In the case of “UniProt Q8C196 (peptide sequence: LPMNKEWPANLDLKK, peptide start residue: 827)”, the log2 fold change is reported as -0.256.
In the case of “UniProt Q8BYA0 (peptide sequence: LGLTFLKPK, peptide start residue: 304)”, the log2 fold change is reported as 0.57.
With “UniProt Q8BZA9 (peptide sequence: ERMYGVAEGKPLSELR, peptide start residue: 89)” the log2 fold change was -0.417.
For “UniProt Q8C0E3 (peptide sequence: MDELGAGIAQSR, peptide start residue: 243)”, the log2 fold change was 0.172.
In the case of “UniProt Q8BX90 (peptide sequence: LSESTSYK, peptide start residue: 1013)”, the log2 fold change is reported as 0.184.
With “UniProt Q8C165 (peptide sequence: NTVADDRVQLHVLR, peptide start residue: 380)” the log2 fold change was -0.244.
“UniProt Q8BW75 (peptide sequence: NQLISRVPLGSVIK, peptide start residue: 283)” gave a log2 fold change of -0.621.
For “UniProt Q8C7Q4 (peptide sequence: YEREQYADR, peptide start residue: 347)”, the log2 fold change was 0.871.
Target “UniProt Q8C729 (peptide sequence: VEVTPTVPR, peptide start residue: 303)” has a log2 fold change of -0.26.
For “UniProt Q8BWY7 (peptide sequence: ENGEVYQR, peptide start residue: 154)”, the log2 fold change was -0.0823.
Work on “UniProt Q8C341 (peptide sequence: IETIKPADPLHPIANGDIK, peptide start residue: 1114)” yielded a log2 fold change of -0.0911.
Target “UniProt Q8BXA5 (peptide sequence: GLRPVFQFGTHSESER, peptide start residue: 377)” has a log2 fold change of 0.38.
“UniProt Q8C172 (peptide sequence: VFTAITKHPDEK, peptide start residue: 86)” was tested, and the log2 fold change was 0.00399.
Work on “UniProt Q8BX17 (peptide sequence: VYEAVELLK, peptide start residue: 990)” yielded a log2 fold change of 0.432.
For “UniProt Q8C5L6 (peptide sequence: EGIMSAVSLR, peptide start residue: 13)”, the log2 fold change was 0.0775.
With “UniProt Q8BVF7 (peptide sequence: VMVYSALR, peptide start residue: 253)” the log2 fold change was -0.0196.
With “UniProt Q8C2B3 (peptide sequence: LTGLLAQR, peptide start residue: 591)” the log2 fold change was 0.423.
